According to PMC12494420:

Assays:
[1] = system: His-BnaC04.bZIP16 (Brassica napus); experiment: EMSA; settings: 10x and 50x unlabelled probe competes; EMSA kit (Thermo) binding buffer, preincubation 10 min at room temperature, 20 fmol biotin probe, 6% native PAGE in 0.5x TBE, 2.5% glycerol; salt and pH not stated; recombinant protein; protein details: His; label: biotin
[2] = system: His-BnaC04.bZIP16 phosphorylated by GST-BnaA06.SnRK2 (Brassica napus); experiment: EMSA; settings: after in vitro kinase assay with increasing GST-BnaA06.SnRK2, binding decreases; EMSA kit (Thermo) binding buffer, preincubation 10 min at room temperature, 20 fmol biotin probe, 6% native PAGE in 0.5x TBE, 2.5% glycerol; salt and pH not stated; recombinant protein; protein details: His; label: biotin

Sequence	binding result [1]	binding result [2]
CACCAACACGTGGATACTATTGCATGATGACGCCATTGACACATGACTCTC (double strand) [BnaA08.OLEOSIN1 promoter P1 probe]	binds	binds more weakly
TACAAACACGTGTCTACTATAATCGTAAATGAACACGTGGCATAC (double strand) [BnaC03.PDH-E1 BETA promoter P1 probe]	binds	

The exact form of at least one protein or probe is not confirmed. For part of these data: Weaker means in comparison with the reference protein, sequence or condition of that experiment.
